The list shows a part of the results.

Chains of the proteins cited; added tags and fusions are not shown.
UniProt Q0JBA9, entry or part of it: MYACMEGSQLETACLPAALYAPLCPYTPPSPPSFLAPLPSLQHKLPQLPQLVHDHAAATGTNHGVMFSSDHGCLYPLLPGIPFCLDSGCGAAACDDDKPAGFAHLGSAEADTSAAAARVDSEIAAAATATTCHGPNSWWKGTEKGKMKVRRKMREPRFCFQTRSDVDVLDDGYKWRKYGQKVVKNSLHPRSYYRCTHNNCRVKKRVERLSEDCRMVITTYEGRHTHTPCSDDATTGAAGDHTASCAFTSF

This assay addresses OsWRKY34 (Oryza sativa, UniProt Q0JBA9 1-250). Nature of the assay: protein-binding microarray (RPBM); PBS, 2% BSA, 51.3 ng/ul salmon testes DNA, 50 uM zinc acetate, 200 nM TF, 25 C, 1 h; high values mean tight binding. To be noted: protein: recombinant; tags: N-terminal polyhistidine and DsRed monomer fusion (pET32a); label: CyDye5-dUTP incorporated in the synthesized complementary strand; 3' TTTTT single-stranded linker to array surface; dsDNA, one strand shown. In a few lines:
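The binding signal is fluorescence intensity per array feature (arbitrary units). Readings came from an Axon 4000B scanner after a washed, 2% BSA-blocked, double-stranded custom Agilent array had been incubated for 1 h at 25 °C with 200 nM protein and 50 µM zinc acetate. The protein was a Ni–NTA-purified transcription factor fused N-terminally to polyhistidine and DsRed, expressed in E. coli BL21-CodonPlus.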
Turning to “ACGCTTTTTATTCTTTTTCAGATGTAGCCTTGCAGTGTAACGGAGTCACCTAGTGCAG”, the binding signal is 8890 fluorescence intensity (a.u.). To “GCACTGATATATTTATTCTCTTCTTTAGTAGACCTACTGACGGAGTCACCTAGTGCAG” belongs 8250 fluorescence intensity (a.u.); to “CCATGGATGCCGACGTCGTAATGGCTTCTCTCTCTGCTGTCGGAGTCACCTAGTGCAG”, 8750 fluorescence intensity (a.u.); to “TACATGTGGGTCCCATGGGTTTTATTATCTTTTTCGGATCCGGAGTCACCTAGTGCAG”, 9360 fluorescence intensity (a.u.). The same measure for “CCCTATACCATTTTCTTTTTCATATTTTTTTCTCGAAAACCGGAGTCACCTAGTGCAG”: 8840 fluorescence intensity (a.u.); for “CCATTCACAAATCATGTTGAGTCGAACCATCAAATTTTGCCGGAGTCACCTAGTGCAG”: 8060 fluorescence intensity (a.u.); for “TCTCACTGTTACCGTACGCGACCACACTTTATATCGGACCCGGAGTCACCTAGTGCAG”: 9420 fluorescence intensity (a.u.).

Take “AATCTGTAATTTGTTTTGTTATTAGTCTACAGGCCTGTTCCGGAGTCACCTAGTGCAG”: the binding signal was 10400 fluorescence intensity (a.u.).

As to “GCCCGTCCCCGTCTCGTGTCGTCTCGCGTCCTAACCTAAACGGAGTCACCTAGTGCAG”, the binding signal is 8390 fluorescence intensity (a.u.). To “GGTCGCCTCTGCTCTGGTAGCACAATGTGCAATTTACTTACGGAGTCACCTAGTGCAG” belongs 9430 fluorescence intensity (a.u.); to “TGTAATGTTTTTCTGTATGCAGCACCACCGCTTTCAACTCCGGAGTCACCTAGTGCAG”, 8710 fluorescence intensity (a.u.); to “AGATTAGTTTTCCCATATATTTCTTGTCAGTCGTCGTCATCGGAGTCACCTAGTGCAG”, 8970 fluorescence intensity (a.u.).

In the case of “CCGTCCACGCGCGATTCCTCCCCTCCACCCGCGCCATCTCCGGAGTCACCTAGTGCAG”, the binding signal was 8110 fluorescence intensity (a.u.). Regarding “CTATACTCACCCACTTGCCAATTTGCCATTGCCAACACCTCGGAGTCACCTAGTGCAG”, the binding signal is 9100 fluorescence intensity (a.u.). Turning to “TAATCCGCACGCCGCCGCCTCCCTCTCTGCTTCGCACTCCCGGAGTCACCTAGTGCAG”, the binding signal was 9270 fluorescence intensity (a.u.). For “GCAGATTCGCCGCTGCCACCGCATCCCGCCCACCCACCGCCGGAGTCACCTAGTGCAG”, the binding signal was 11700 fluorescence intensity (a.u.). For “ACCACCAACACCACAATATATGGTCCTCTACTATCTTAATCGGAGTCACCTAGTGCAG”, the binding signal was 9720 fluorescence intensity (a.u.). The same measure for “ATCTTGTGACAACTTTTTTCTCTTTACCTTTCTCTATATTCGGAGTCACCTAGTGCAG”: 9930 fluorescence intensity (a.u.); for “AGCTGCAAACCTCTTACTGTTTCTGATAATCTTCCTATGACGGAGTCACCTAGTGCAG”: 8200 fluorescence intensity (a.u.); for “CTCCACACAGACACACATCCCACCCCACCCACATACACACCGGAGTCACCTAGTGCAG”: 13200 fluorescence intensity (a.u.).

Regarding “ACTTGCACGTACGCTTTCCCATTCTCTTTTGCTTAAACCGCGGAGTCACCTAGTGCAG”, the binding signal is 13300 fluorescence intensity (a.u.).

On to “TTCTATAGCTTTCCATGAACCAGATGCCCTTTGATCTATACGGAGTCACCTAGTGCAG”, for which the binding signal is 9000 fluorescence intensity (a.u.). The same measure for “GGACAATGACAGCACATTACGCGCACCTTTTCTTCTACCACGGAGTCACCTAGTGCAG”: 13300 fluorescence intensity (a.u.); for “CTATCATCTTTCTTCCCACATCGTCTATTCCCTAAAGAATCGGAGTCACCTAGTGCAG”: 11800 fluorescence intensity (a.u.); for “TCGCCTCCTCCGGCTTATAAATGGCGGCCACCACCTTCACCGGAGTCACCTAGTGCAG”: 8440 fluorescence intensity (a.u.). Take “ACCTGCCTCGATCTCGCTCTCGCTCTCGCTCTCTACCCGACGGAGTCACCTAGTGCAG”: the binding signal is 9500 fluorescence intensity (a.u.). For “GCACCCGTTTTTCTACTGGATTTTTCTCTGCGTCCTCTGCCGGAGTCACCTAGTGCAG”, the binding signal was 9340 fluorescence intensity (a.u.).

In the case of “AAATTCCCACACACACACACACACACACACACACACACACCGGAGTCACCTAGTGCAG”, the binding signal is 8560 fluorescence intensity (a.u.). To “TTGATTTCCTGCTGCTCCATTGGTTCTTGCTCTTGTTCTTCGGAGTCACCTAGTGCAG” belongs 12900 fluorescence intensity (a.u.); to “TTTTTTCCTAGTCAACCCGATCGAGATCCCATCCCGTTTACGGAGTCACCTAGTGCAG”, 8110 fluorescence intensity (a.u.); to “GGTAGAGGAGGGAGGGGAGGCGCAGGGGCAGTGGCCCGACCGGAGTCACCTAGTGCAG”, 10100 fluorescence intensity (a.u.). As to “TCTTCATCTTTGCTTCGGAGCAGACATTCTACTTCAACAACGGAGTCACCTAGTGCAG”, the binding signal was 8790 fluorescence intensity (a.u.). The same measure for “ATATGCTGTTCATTGTTGAATTCTGTTTGTGTCACCTTCTCGGAGTCACCTAGTGCAG”: 9180 fluorescence intensity (a.u.); for “CTACTCCTACTTCGTTTTACCACTAAGCGGTCTGGACGATCGGAGTCACCTAGTGCAG”: 10000 fluorescence intensity (a.u.).

As to “GCCGCACTGGACTGTGCTGTACATGTTGTTCACATATCTTCGGAGTCACCTAGTGCAG”, the binding signal was 8270 fluorescence intensity (a.u.). The same measure for “GATTGTTTTCTCTCTCACTCACTCCGCTGTATATATATCTCGGAGTCACCTAGTGCAG”: 8230 fluorescence intensity (a.u.). For the sequence “GTTCACGGCCACCACTATCGTGTTGTCTTTGTGTCGTTGTCGGAGTCACCTAGTGCAG”, the binding signal was 10000 fluorescence intensity (a.u.).

Take “CTAGATTCATATGTACATCATCGTATTCGTATTCTTTCCACGGAGTCACCTAGTGCAG”: the binding signal was 8110 fluorescence intensity (a.u.). The same measure for “GGTCTTGTATTTATACCTATAGGTGTTCCCTTGTCCAAGTCGGAGTCACCTAGTGCAG”: 9690 fluorescence intensity (a.u.). To “GAGTAAGACGAATAGTCAAACATGTGAGAAAAGTCAACGGCGGAGTCACCTAGTGCAG” belongs 11600 fluorescence intensity (a.u.); to “ATCTCCAAACTCTCTCTGTTGTTCCCATCTGCCGGAGGCCCGGAGTCACCTAGTGCAG”, 9550 fluorescence intensity (a.u.); to “AGCCCAATATTTCGATCAAACGCTGACTCCATATCGCCTTCGGAGTCACCTAGTGCAG”, 8260 fluorescence intensity (a.u.).

For the sequence “ATGGTCACCCTGATGTTTTCGATAGAATCTTTCACCTCACCGGAGTCACCTAGTGCAG”, the binding signal was 8070 fluorescence intensity (a.u.).

For the sequence “GCGTCAGTCGTCAGACCCGACGAGTGGTGGGGTGGGGAGTCGGAGTCACCTAGTGCAG”, the binding signal is 11800 fluorescence intensity (a.u.).

For “CGTCTCATCTCATCTCGTCTCGCCCCGCTGTAATCTCGTACGGAGTCACCTAGTGCAG”, the binding signal is 12200 fluorescence intensity (a.u.).

With “AACTTGGTCAAACTTAAAGCAGTTTGACTTCTTATAACTTCGGAGTCACCTAGTGCAG”, the binding signal is 15900 fluorescence intensity (a.u.). To “CCTCCGCCTCCGCGCGCGCCAGCGGCCGCCGCCGCCTCCTCGGAGTCACCTAGTGCAG” belongs 8220 fluorescence intensity (a.u.); to “AATTTTGGTTATTTGCTGGTGGACATTTATCCCATTAAAACGGAGTCACCTAGTGCAG”, 9370 fluorescence intensity (a.u.); to “CATGAGCTAATAGCTCACCTCGTTTTGCGTATCTTCCCAACGGAGTCACCTAGTGCAG”, 8730 fluorescence intensity (a.u.). The same measure for “GTGCAGTATGCATTAGCTCGTTTTTCTCGTCACACCTTTGCGGAGTCACCTAGTGCAG”: 10300 fluorescence intensity (a.u.); for “AAGCTTTGACTTTTTTTTGTCAAATTTTTTAAGTTTGATTCGGAGTCACCTAGTGCAG”: 20400 fluorescence intensity (a.u.); for “TGGTCTTGGTTTGGCTTTTTTGTTTTTTCTAGATGAACTTCGGAGTCACCTAGTGCAG”: 12600 fluorescence intensity (a.u.).

With “TGTACCATATATTTTTTAACTTTTTTCTTTTGTTTTTTATCGGAGTCACCTAGTGCAG”, the binding signal is 9640 fluorescence intensity (a.u.).

Take “TGCCGGCCTTGGAGCGTTGTGCTGGACATGGACATGGACACGGAGTCACCTAGTGCAG”: the binding signal was 8880 fluorescence intensity (a.u.).
